The values below come from publication PMC12040169 (PLOS Biology, 2025).

The list shows a part of the results.

This assay has as its system T1, CTL2-GFP (C. trachomatis L2/434/Bu, GFP-expressing).
T1 construct: L2/434/Bu, GFP-expressing
On the set-up: species or system HeLa; Intracellular C. trachomatis growth in HeLa cells, bulk GFP fluorescence relative to DMSO. To be noted: bulk GFP, single well; 28.5 h, 10 µM; inhibitor.
In the case of `CCOC(=O)c1c(C#N)c(SCc2ccc(Cl)cc2)nc2c1CN(CC)CC2` [CBK021337], the “% of control remaining” value stood at 93.1588%.
Next, `Cc1[nH]nc(Nc2cccc(C(=O)O)c2)c1[N+](=O)[O-]` [CBK262725]: 126.537%.
Then `CCOC(=O)c1cnn(C2CCCN(C(=O)c3cscc3C)C2)c1` (stereo not drawn) [CBK305385], with 92.8961%.
Next, `O=C(CCCN1CCN(C(=O)NC2CCC(O)CC2)CC1)c1ccc(F)cc1` (stereo not drawn) [CBK025156C]: 100%.
As for `N#Cc1ccc(CNC(=O)c2ccc3[nH]ccc3c2)cc1` [CBK149078], the “% of control remaining” value was 111.96%.
Then `COc1cccc(-c2n[nH]c3c2C(c2cccnc2)NC3=O)c1` (stereo not drawn) [CBK288238], with 105.908%; and `CCN(Cc1ccccc1)C(=O)Nc1ccccc1` [CBK012816], with 92.8387%; and `CC(C)(C)OC(=O)N1CCC(c2nc3ccc(F)cc3cc2N)CC1` [CBK284658], with 70.7796%.
Next, `COCCOC(=O)N1CCC(N(C)Cc2ccc(-c3ccc(S(C)(=O)=O)cc3)nc2)CC1` [CBK165258T]: 116.923%; `O=C(c1ccco1)N1CCC(c2nnc3n2CCCCC3)CC1` [CBK284607]: 153.681%; `C[C@H](NC(=O)N1CCN(C(=O)c2c[nH]c3ccccc23)CC1)C(=O)O` [CBK286581]: 111.744%.
With `Cc1cc2n(n1)[C@@H](C(F)F)C[C@@H](C1CCN(C(=O)C(C)C)CC1)N2` [CBK284725], the “% of control remaining” value came to 124.452%.
As to `O=S(=O)(Nc1nnn[nH]1)c1ccc(-c2cnco2)s1` [CBK062394], the “% of control remaining” value was 84.565%.
With `CCC(CO)Nc1cncc(-c2cc(C(C)C)ccc2OC)n1` (stereo not drawn) [CBK065743], the “% of control remaining” value is 96.3056%.
With `Cc1c(C(=O)NC2CCN(c3ncccc3C#N)CC2)ccn1C` [CBK307681], the “% of control remaining” value was 137.147%.
As to `O=c1[nH]c2ncc(-c3cccc(CO)c3)nc2n1CC1CC1` [CBK065088], the “% of control remaining” value worked out at 154.109%.
Then `O=C(O)c1ccc(NC(=O)c2cccc(NC(=O)c3cccc4ccccc34)c2)cc1` [CBK299823], with 118.578%; and `Nc1ncc(-c2occc2C=O)nc1NC1CCOCC1` [CBK063789], with 198.474%.
For the molecule `Cn1cc(N2CCC(NC(=O)c3ccc(C#N)cc3)C2=O)cn1` (stereo not drawn) [CBK305182], the “% of control remaining” value is on record as 146.171%.
Next, `COCCCn1c(C)c(C)n2c3c(=O)n(CCN4CCCCC4)c(=O)n(C)c3nc12` [CBK269762]: 127.743%.
Then `O=C(O)[C@@H]1CCN(Cc2ccccc2)C[C@H]1c1ccccc1` [CBK286840], with 125.715%; and `COc1cccc(COc2cncc(N3CCNCC3)n2)c1OC` [CBK200003], with 51.6643%.
Next, `O=[N+]([O-])c1cc(-c2nc(-c3cccs3)c(-c3cccs3)[nH]2)ccc1Br` [CBK265009]: 101.393%; `Cc1ccc(S(=O)(=O)NC2c3cccc4cccc(c34)C2Sc2nnc(N)[nH]2)cc1` (stereo not drawn) [CBK265875]: 110.055%; `CC(=O)NC1(c2ccccc2)CCN(Cc2ccnn2C)CC1` [CBK281805]: 128.388%.
As to `O=C(O)c1ccc(NC(=O)c2ccccc2F)c(NC(=O)c2ccccc2F)c1` [CBK275363], the “% of control remaining” value is on record as 120.457%.
In the case of `CCc1nc2ccc(C(=O)Nc3ccc(C(N)=O)cc3)cn2c1N(CC)Cc1cccc(Br)c1` [CBK146960], the “% of control remaining” value turned out to be 122.071%.
For the molecule `O=[N+]([O-])c1ccccc1S(=O)(=O)N1CCN(S(=O)(=O)c2ccc(Cl)cc2)CC1` [CBK264311], the “% of control remaining” value came to 100%.
Next, `CCOc1cc(NC2CCN(C(=O)C(C)CC3CCCC3)CC2)ncn1` (stereo not drawn) [CBK306176]: 91.4522%; `Cn1cc(C(=O)NC2CCN(C(=O)c3ccc4c(c3)CCC4)CC2)cn1` [CBK305664]: 98.9875%.
For `CCOc1ccc(CC(=O)N2CCC(c3ccncc3)CC2)cc1` [CBK283596], the “% of control remaining” value turned out to be 122.507%.
Take `CC(C)(C)n1cc2c(n1)[C@H]1CN(C(=O)CN3CCCC3=O)C[C@H]1CC2` [CBK283401]: the “% of control remaining” value is on record as 128.288%.
Then `Cc1cc(N2CCCN3CCCCCC32)nc(N)n1` (stereo not drawn) [CBK169746], with 120.33%; and `CCOC(=O)c1c(NC(=O)CN2CCOCC2)sc2c1CCC2` [CBK262548], with 112.405%.
Then `CCOc1nc(Nc2nc(-c3ccccc3)cs2)nc(OCC)n1` [CBK262442], with 133.26%.
Then `CCOC(=O)c1c(C(C)(C)C)oc2ccc(OCC(=O)c3ccc(OC)cc3)cc12` [CBK264950], with 115.611%.
Turning to `COc1ncccc1C(=O)N1Cc2ccccc2C1` [CBK200324], the “% of control remaining” value is 87.9684%.
As for `OCc1cccc(-c2cncc(NCCc3cccnc3)n2)c1` [CBK037946], the “% of control remaining” value was determined as 190.774%.
As to `CC(C)c1cccc(C(C)C)c1OCCNCCO` [CBK262750], the “% of control remaining” value was determined as 100%.
Regarding `Cc1sc2ncn(CCC(=O)O)c(=O)c2c1C` [CBK288191], the “% of control remaining” value is 91.2031%.
For the molecule `CCN1CCCC1CN(Cc1cccs1)CC1CCOC1` (stereo not drawn) [CBK282602], the “% of control remaining” value is listed as 90.7593%.
Next, `O=C(c1ccccc1)N1CCC(c2cccc(Cc3ccccc3Cl)n2)CC1` [CBK286085]: 99.8921%.
Turning to `CCCN(C(=O)OC(C)(C)C)C1CCc2[nH]c(=O)c(C#N)cc2C1` (stereo not drawn) [CBK023470], the “% of control remaining” value worked out at 126.378%.
In the case of `Cc1nonc1CC(=O)N1CCC[C@@H]2[C@H]1C/C=C/Cc1ccccc1OCC(=O)N2C` [CBK292062], the “% of control remaining” value came to 149.369%.
For the molecule `COc1ccc(C(C)N(CCN2CCOCC2)C(=O)NCc2cccnc2)cc1OC` (stereo not drawn) [CBK158986], the “% of control remaining” value worked out at 90.9206%.
As to `Cc1ccc(C(F)(F)F)cc1NS(=O)(=O)c1cc(OC2CCNCC2)c2occc2c1` [CBK082763C], the “% of control remaining” value was determined as 140.963%.
Then `COCCNc1cc(-c2cccc3oc4ccccc4c23)ncn1` [CBK090794], with 228.467%; and `COC(=O)[C@@H]1CN(C(=O)c2cccs2)CCN1C(=O)c1cccnc1` [CBK289610], with 119.75%.
Next, `CC(Sc1nnc(-c2ccc(Cl)cc2)n1CC(=O)O)C(=O)Nc1ccnn1C(C)C` (stereo not drawn) [CBK296970]: 170.444%; `Cc1nc(CN2CCN(C(=O)NCCc3cnn(C)c3)CC2)cs1` [CBK305614]: 144.663%.
Next, `CC(C)CNC(=O)c1cccc(NC(=O)N2CCC2c2cccs2)c1` (stereo not drawn) [CBK306927]: 73.5403%.
As to `CC(=O)OC(c1ccccc1)c1nc2ccccc2[nH]1` (stereo not drawn) [CBK110141], the “% of control remaining” value was determined as 83.1319%.
Next, `CC(=O)C(/N=N\c1ccc(S(=O)(=O)Nc2nccs2)cc1)C(=O)Nc1ccc(Cl)cc1` (stereo not drawn) [CBK015826]: 134.824%; `Cc1ccc(NC(=O)/C=C/c2ccc3c(c2)OCO3)c(NC(=O)/C=C/c2ccc3c(c2)OCO3)c1` [CBK265423]: 102.657%.
Then `Cc1cc(CC(=O)N2CCN(C(=O)c3ccco3)CC2)on1` [CBK144465], with 128.405%; and `O=C(CO)N1CC2(CCN(CCO)CC2)c2ccccc21` [CBK131507], with 124.523%.
`CCNC(=O)N[C@H]1CO[C@H]2[C@@H]1OC[C@@H]2n1nnnc1Oc1ccccc1` [CBK289484]: the “% of control remaining” value amounted to 111.138%.
Then `Cc1ccc(-n2c(SCC(=O)N3CCc4ccccc43)nnc2-c2ccccc2O)c(C)c1` [CBK268793], with 163.487%; and `CC(C)(C)c1nnc(NC(=O)c2ccc(F)cc2)s1` [CBK086855], with 120.986%.
Then `COc1ccc(NC2c3cccc4cccc(c34)C2NS(=O)(=O)c2ccccc2)cc1` (stereo not drawn) [CBK264075], with 87.3275%; and `Fc1ccc(CN2CCC(c3nnc4n3CCCCC4)CC2)cc1F` [CBK283356], with 123.673%.
Then `N#CC(c1ccc(O)cc1)N1CCOCC1` (stereo not drawn) [CBK261659], with 100.647%; and `Cc1noc(NS(=O)(=O)c2ccc(NC(=O)COc3ccccc3Br)cc2)c1C` [CBK263918], with 32.4015%; and `CS(=O)(=O)Nc1nccnc1N1CCN(c2ccccc2)CC1` [CBK048688], with 124.383%.
`COc1cncc(C(NC(=O)c2cc(=O)cc(C)o2)[C@H]2C[C@@H](O)C2)c1` (stereo partly drawn) [CBK306833]: the “% of control remaining” value is given as 133.458%.
For the molecule `CCCN(C(C)=O)c1nc(O)cc(C(F)(F)F)n1` [CBK000427], the “% of control remaining” value came to 101.55%.
Next, `COc1cccc(N2C(=O)N[C@@H]3CCN(C(=O)c4cccs4)[C@@H]3C2=O)c1` [CBK289279]: 124.28%; `CCOCC1CN(c2cc(CO)c(F)cn2)CCO1` (stereo not drawn) [CBK304756]: 134.645%.
With `CN1CCC(C(=O)N2CCN(CCc3ccccc3)CC2)CC1` [CBK200216], the “% of control remaining” value was 129.502%.
Then `Cc1ccc(NC2CC(C)N(C(=O)c3cccc([N+](=O)[O-])c3)c3ccc(C)cc32)cc1` (stereo not drawn) [CBK293929], with 127.042%.
Then `CCOc1ccc(S(=O)(=O)Nc2ccc(C(=O)O)c(O)c2)cc1` [CBK299837], with 155.785%.
Turning to `C(=C\c1nccnc1OCc1ccccn1)/c1ccccc1` [CBK106874], the “% of control remaining” value was 97.3976%.
With `FC(F)(F)c1cc(-c2cn3ccnc3c(Nc3ccc4[nH]ccc4c3)n2)cc(C(F)(F)F)c1` [CBK066356], the “% of control remaining” value was found to be 111.842%.
Next, `Cc1c(NC(=O)Nc2ccccc2)sc(=S)n1C` [CBK027434]: 107.526%.
Then `COc1ccc(NC(=O)CSc2nnc(-c3ccncc3)n2-c2ccc(C)cc2)cc1Cl` [CBK266187], with 149.838%; and `CC(C)CC(=O)N1C[C@H]2CCCN(Cc3ccccn3)[C@H]2C1` [CBK285269], with 127.148%.
For the molecule `O=C(c1cncc(-c2[nH]nnc2-c2ccccc2)c1)N1CCCC1` [CBK160360], the “% of control remaining” value was determined as 127.412%.
As to `Cc1cc(C)nc(N2CCC(CC(=O)NCCCc3ccc(F)cc3)CC2)n1` [CBK285995], the “% of control remaining” value came to 128.213%.
